Reference: US9181193B2, “Indenoquinolone compound, preparation method and use thereof” (Second Military Medical University, PLA, priority 2010, dated 2015)
At least one structure is not confirmed: it was looked up by name or label, or the drawing left a doubt.

System: human lung cancer cell line A549
Test: Anti-tumor activity test in vivo, nude mouse model of A549
Settings: nude mouse model of A549, dose of 1-200 mg/kg weight
Description: The activities of some compounds in vivo in the nude mouse model of human lung cancer cell line A549 were detected by using literature methods (WEI Hong. Medical Experiments Zoology. 2nd edition. Chengdu: Sichuan Science and Technology Press, 2001: 595-596).

`COc1ccc2c(c1)C(=O)c1c-2c(=O)n(CCN(C)C)c2ccccc12` [Compound 31, 5-(2-dimethylaminoethyl)-9-methoxy-5H-indeno[1,2-c]quinoline-6,11-dione] was tested, and the “anti-tumor activity in vivo” value was “good anti-tumor activity in vivo”.
